# For part of these data: Weaker means in comparison with the reference protein, sequence or condition of that experiment. For part of these data: Construct, isoform or probe ends are uncertain for at least one entry. For part of these data: No signal at the amounts used counts as a negative. For part of these data: At least one verdict was read from the data and is not stated in words by the source.
# By UniProt entry, the sequences of proteins in these tests, tags left out. Residues count along the entry.
# UniProt O29494, whole entry E34S: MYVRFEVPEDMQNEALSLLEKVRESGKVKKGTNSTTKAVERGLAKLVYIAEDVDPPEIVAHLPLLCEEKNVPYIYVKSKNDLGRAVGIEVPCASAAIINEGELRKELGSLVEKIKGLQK
# UniProt O29494, 2-119: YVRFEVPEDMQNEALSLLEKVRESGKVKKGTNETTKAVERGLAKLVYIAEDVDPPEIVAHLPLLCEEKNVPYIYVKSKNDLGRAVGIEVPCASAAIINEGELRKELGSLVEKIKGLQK
# Legend:
# Experiment in all cases: SPR
# [1] = target: L7Ae (Archaeoglobus fulgidus (printed A. fulgidus)) (UniProt O29494); settings: SPR: 10 mM HEPES pH 7.4, 150 mM NaCl, 1 mM MgCl2, 0.05% P20, 0.25 mM TCEP, 0.1 mg/ml BSA, 25 ug/ml yeast tRNA, 25 C; recombinant protein; protein details: N-term Twin-Strep-tag, C-term 6xHis
# LS12 E34S = LS12 E34S (UniProt O29494); settings: SPR: 10 mM HEPES pH 7.4, 150 mM NaCl, 1 mM MgCl2, 0.05% P20, 0.25 mM TCEP, 0.1 mg/ml BSA, 25 ug/ml yeast tRNA, 25 C; recombinant protein; protein details: N-term Twin-Strep-tag, C-term 6xHis
# [2] = target: L7Ae (Archaeoglobus fulgidus) (UniProt O29494); settings: SPR running buffer: 10 mM HEPES pH 7.4, 150 mM NaCl, 0.05% Surfactant P20, 1 mM MgCl2, 0.25 mM TCEP, 0.1 mg/ml BSA, 25 ug/ml yeast tRNA, 25 C; recombinant protein; protein details: N-term Twin-Strep-tag, C-term 6xHis
# LS4 = LS4 (UniProt O29494); settings: SPR: 10 mM HEPES pH 7.4, 150 mM NaCl, 1 mM MgCl2, 0.05% P20, 0.25 mM TCEP, 0.1 mg/ml BSA, 25 ug/ml yeast tRNA, 25 C; recombinant protein; protein details: N-term Twin-Strep-tag, C-term 6xHis
sequence,measurement,setting,value
GGAUGCAAAGAACGAAAGUUCCAUGACGCAUCCAAAUCGACGAAAGACACAGAACG [CS2-M1],binding result,[1],binds more weakly
same,binding result,LS12 E34S,binds more weakly
GGAUGCAGAGAACGAAAGUUCCAUGCCGCAUCCAAAUCGACGAAAGACACAGAACG [CS2-M4],binding result,[1],binds more weakly
same,binding result,LS12 E34S,binds more weakly
GGAUGCAGAGAACGAAAGUUCCAUUACGCAUCCAAAUCGACGAAAGACACAGAACG [CS2-M3],binding result,[2],binds more weakly
GGAUGCAGCGAACGAAAGUUCCAUGACGCAUCCAAAUCGACGAAAGACACAGAACG [CS2-M2],binding result,[1],binds more weakly
same,binding result,LS12 E34S,binds more weakly
GGUGGCAAAGAAAGGCGAAAGCCUUGUGGGGCCAUCAAAUCGACGAAAGACACAGAACG [CS1-M2d],binding result,[2],binds more weakly
GGUGGCAAAGAAAGGCGAAAGCCUUGUGUGGCCAUCAAAUCGACGAAAGACACAGAACG [CS1-M2e],binding result,[2],binds more weakly
GGUGGCAGAGUAAGGCGAAAGCCUUUUGAGGCCAUCAAAUCGACGAAAGACACAGAACG [CS1-M4],binding result,LS4,no binding
GGUGGCAGUGAAAGGCGAAAGCCUUGUUAGGCCAUCAAAUCGACGAAAGACACAGAACG [CS1-M3],binding result,LS4,no binding
GGUGGCAUAGAAAGGCGAAAGCCUUGUGUGGCCAUCAAAUCGACGAAAGACACAGAACG [CS1-M2],Kd,[1],> 1000 nM

# Reference: publication PMC8789040
